LdMetRS: 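Primary screen of methionyl-tRNA synthetase; the read-out is not stated. Target: Methionyl-tRNA synthetase (putative), Leishmania donovani (UniProt E9BF75). The test concentration is not given. The values are filed as inhibition. Size under these conditions: about 68,000 compounds, about 24 of them at 50% or above in at least one test.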
Mtb heat-shock: 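Assay on Mycobacterium tuberculosis, filed only as a heat shock assay from Cornell; the read-out is not stated. The concentration is filed as 10 mM, unlikely as a test dose, so the dose is not known. The record gives no direction; compounds that gave an IC50 in retests scored well above the rest, so higher reads as stronger inhibition. Size under these conditions: about 69,000 compounds, about 930 of them at 50% or above in at least one test.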

Protein sequences, listed by entry. Tags and fused reporters are not part of them.
UniProt E9BF75, entry or part of it: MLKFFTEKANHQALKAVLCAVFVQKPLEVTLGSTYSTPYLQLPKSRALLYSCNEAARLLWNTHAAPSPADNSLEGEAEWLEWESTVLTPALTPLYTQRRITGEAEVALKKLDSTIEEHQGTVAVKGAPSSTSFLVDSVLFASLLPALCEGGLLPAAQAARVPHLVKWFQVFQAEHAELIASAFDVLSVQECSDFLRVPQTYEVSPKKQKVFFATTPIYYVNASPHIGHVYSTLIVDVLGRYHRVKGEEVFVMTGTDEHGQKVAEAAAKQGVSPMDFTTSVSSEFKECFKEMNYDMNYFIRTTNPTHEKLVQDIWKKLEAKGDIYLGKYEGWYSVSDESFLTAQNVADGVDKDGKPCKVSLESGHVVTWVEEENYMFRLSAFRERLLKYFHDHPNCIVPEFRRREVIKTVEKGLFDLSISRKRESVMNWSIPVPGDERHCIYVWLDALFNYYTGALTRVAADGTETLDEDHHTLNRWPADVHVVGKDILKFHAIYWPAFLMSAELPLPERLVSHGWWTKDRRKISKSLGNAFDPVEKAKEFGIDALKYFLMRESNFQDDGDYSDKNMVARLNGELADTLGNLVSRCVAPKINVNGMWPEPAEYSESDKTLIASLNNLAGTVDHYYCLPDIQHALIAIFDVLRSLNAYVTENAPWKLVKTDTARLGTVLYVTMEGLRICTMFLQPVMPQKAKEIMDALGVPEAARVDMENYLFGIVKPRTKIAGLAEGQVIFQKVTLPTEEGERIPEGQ

All values are in %.
How 0% and 100% were set is not recorded. Most values in the screen are low, and negative values occur.
The compounds are a random part of those screened.
A dash means the value is not listed here; it may have been measured.

Compound,LdMetRS,Mtb heat-shock
O=C(O)C(F)(F)F.[H][C@@]12C[C@@H](c3nc(C)no3)CN(S(=O)(=O)c3cccnc3)[C@]1([H])CCO2,-,-33.58
Cc1cc(C)n(CC2CN(CCOc3cccc(C#N)c3)CCO2)n1 (centres unmarked),18.11,-22.36
CCC1=N[C@@]2(CC[C@@H]3CN(Cc4ccccc4C)C[C@@H]32)C(=O)N1C,19.64,-
Cc1ncsc1C(=O)N1CCC(Nc2cccnn2)CC1,2.089,-15.2
O=C(NC1CCC1)C1=NOC2(CCN(Cc3ccc(F)cc3)C2)C1 (centres unmarked),-3.922,-20.65
CN1CCN(Cc2cccnc2)C(=O)C12CCN(C1CCOC1)CC2.O=C(O)C(F)(F)F.O=C(O)C(F)(F)F.O=C(O)C(F)(F)F (centres unmarked),-,-2.13
CCOC(=O)c1nc(COc2c(C)occc2=O)no1,10.57,20.09
COCC1CC2(CCN(C(=O)C3CCSCC3)CC2)CO1 (centres unmarked),-2.439,-22.74
CC(C)n1ccc(=O)nc1SC1CCN(c2ccccc2F)C1=O (centres unmarked),11.42,-9.873
Cc1ncc2c(c1CNC(=O)C1(C)CCCO1)CCNC2 (centres unmarked),-1.795,-6.118
Cn1cc(C(=O)N2CCCC2CCc2ccccc2)cn1 (centres unmarked),5.307,-6.017
CC(C)c1nc(S(=O)(=O)N(C)c2cc(F)ccc2F)c[nH]1,4.53,-3.589
CC(NCCCn1ccnc1)c1ccc(N2CCCS2(=O)=O)cc1 (centres unmarked),-6.015,-33.87
CC(=O)N1CCC2(CC1)CC[C@@]1(C(=O)N(C)C)CN(S(C)(=O)=O)C[C@@H]21,2.602,-
[H][C@@]12CCN(Cc3cccc(C)n3)C[C@]1(C(=O)N1CCOCC1)CCO2,-,35.96
CC(C)n1cc(CN2CCCN(C(=O)c3cc(Cl)c[nH]3)CC2)cn1,13.07,6.374
NCC1Cc2cc(-c3cnccn3)cc(Cl)c2O1 (centres unmarked),6.948,24.8
CN(Cc1cccs1)c1nc2c(cnn2C(C)(C)C)c(=O)[nH]1,16.85,16.58
O=C1c2cnc(N3CCOCC3)nc2CN1Cc1cccc(F)c1,6.63,-4.681
CCCn1ncnc1C(C)NC(=O)CC1CCN(C(C)C)CC1 (centres unmarked),12.71,5.802
CC(C)N(C)C(=O)C1CCN(Cc2cnc3ccccn23)CC1,9.218,-13.1
Cc1cc(NC(=O)CN(C)CC2CCCN2c2cccnn2)n(C)n1 (centres unmarked),8.791,0.9861
COc1cc2cc(C)c(SCCN3CCCC3)nc2cc1OC.Cl,-,5.186
Cc1cnn(C2CCCN(C(=O)c3ccnc(-n4cncn4)c3)C2)c1 (centres unmarked),5.698,-5.165
CC(=O)c1c(F)cccc1NC1CCN(C(=O)C2CCCCC2)CC1,-2.892,12.05
COCCN1C[C@H]2[C@@H](C1)N(C(=O)c1cccs1)CC[C@H]2OC,5.579,-
COc1cccc(NC(=O)CC2Cn3ncnc3NC2=O)c1 (centres unmarked),8.571,-5.698
O=C(c1cncs1)N1CCOCC(Cc2ccccn2)C1 (centres unmarked),16.2,-13.41
c1ccc(-c2noc(C3CCN(CCn4cccn4)CC3)n2)cc1,3.846,-0.871
O=C(CN(Cc1ccco1)C1CC1)N1CCCCCC1,24.31,15.65
CN(Cc1nc(-c2cccnc2)no1)C(=O)c1cccn1C,-0.6969,24.41
CCOCCNc1nc(C2CCCC2)nc2c1cnn2C,13.3,10.38
CCOc1cc(C)nc(N2CCN(C(=O)c3ccnn3C)CC2)n1,17.46,-0.7103
c1cncc(Cc2nnc3n2CCN(CC2CCOC2)CC3)c1 (centres unmarked),15.22,-7.811
COc1ccc(-c2nc(CC(=O)N(C)CCC#N)cs2)cc1OC,9.041,-7.447
CCOCC1c2c(cnn2C)CCN1C(=O)c1ccncn1.O=C(O)C(F)(F)F (centres unmarked),-,-17.1
Cc1noc(C2CCN(C(=O)Nc3ccc(N(C)C)nc3)CC2)n1,17.89,27.45
Cc1ncc2c(n1)CN(Cc1nc(Cc3ccccc3)no1)CC2,30.79,11.77
O=C(c1ccccc1-c1ccccc1)N1CCOC2(CNCCOC2)C1 (centres unmarked),13.41,-7.556
COc1ccccc1N1CCCC(Nc2ncccn2)C1=O (centres unmarked),13.61,1.671
Cn1nc(CNS(=O)(=O)Cc2ccccc2F)c2c1CCCC2,12.71,9.087
CC(C)c1nn(C)c(N(C)C)c1CNCc1cccc2cccnc12,20,-
C[C@@H]1CN(CCC(=O)N(C)Cc2ccccc2)CC[C@@]1(O)C1CCC1,1.005,-25.19
O=C1[C@@H]2CN(c3ncccc3Cl)C[C@]2(C(=O)O)CN1CC1CC1,7.673,-
CNC(=O)Cn1ccc2ccc(NC(=O)C(C)CSC)cc21 (centres unmarked),16.17,13.3
CCn1c(CC2CCN(C(=O)C3COCCO3)CC2)nn(C)c1=O (centres unmarked),-5.245,-21.48
CNC(=O)N(C)CC1(c2ccc(Br)cc2)CC1,10.5,-13.7
OC1(CNCc2cnc(N3CCOCC3)nc2)CCCCC1,24.57,-23.51
CN(Cc1ccc(N(C)C)cc1)C(=O)c1cc2c([nH]c1=O)CCCC2=O,11.11,32.82
CS(=O)(=O)N1C[C@H]2CCCN(Cc3nccs3)[C@H]2C1,-3.114,-
CSCCc1ccc(NC(=O)NCc2ccnc(N(C)C)c2)cc1,3.741,-9.171
Cc1occc1C(=O)N1CCC2(CCN(C(=O)c3cccnc3)C2)CC1,12.4,-
CC(=O)N1CCC(c2ccnc(Nc3cnccn3)n2)C1 (centres unmarked),11.5,-0.06301
CC(C)CN1CCC2(COCc3cnc(-c4ccccc4)nc32)C1 (centres unmarked),12.92,-
Cc1cnn(CC2CCCN2Cc2cc(=O)n3c(C)csc3n2)c1 (centres unmarked),18.51,7.892
Cc1nn(C)c(N(C)C)c1CNC(C)COc1ccc(F)cc1F (centres unmarked),22.16,-7.822
O=C(Nc1ccccc1)N1CCn2nnc(COc3cccnc3)c2C1.O=C(O)C(F)(F)F,-,13.03
CNC(=O)N1CC[C@@H]2CN(Cc3cccc(OC)c3)S(=O)(=O)[C@@H]2CC1,9.819,-
O=C(CCc1cccs1)N1CCCC1c1noc(C2CC2)n1 (centres unmarked),10.34,13.86
CCOCCN1CCN(C(C)c2nc(C3CC3)no2)CC1 (centres unmarked),1.587,37.53
[H][C@@]12C[C@@H](C(=O)Nc3cccnc3)CN(Cc3nccs3)[C@]1([H])CCO2,-,-48.73
NC(=O)C1CCCN1c1cc(N2CCc3ccccc3C2)ncn1 (centres unmarked),12.71,-3.501
CN1CCOCC12CCN(Cc1ccoc1)CC2.O=C(O)C(F)(F)F.O=C(O)C(F)(F)F,-,30.4
Cc1noc(CN(Cc2cccs2)C2CCS(=O)(=O)C2)n1 (centres unmarked),9.777,-5.033
O=S1(=O)C[C@@H]2[C@H](C1)N(Cc1ncc[nH]1)CCN2C/C=C/c1ccccc1,5.222,-
Cc1cc(C)n(CC2CCCN2C(=O)Cc2c(C)noc2C)n1 (centres unmarked),15.69,6.879
CC(=O)Nc1ccc2nc(CN(C)Cc3snnc3C)ccc2c1,23.99,25.51
O=C(c1cccnc1)N1CCOC2(COCCN(c3cncnc3)C2)C1 (centres unmarked),10.95,-
Cl.Fc1cccc(F)c1Cn1c(C2CCNCC2)cc2cccnc21,-,-5.947
CC1CCN(CC(=O)NC2CCN(C(C)c3ccccc3)CC2)CC1 (centres unmarked),13.08,-
CN(C(=O)Cn1nc(-c2ccc(Cl)cc2)ccc1=O)C1CCS(=O)(=O)C1 (centres unmarked),14.85,17.7
CC(C)OCCCNC(=O)CSc1nnc(OC(C)C)s1,16.76,13.04
CCc1nc(N2CCCN(c3ncccn3)CC2)c2cnn(C)c2n1,12.28,-1.077
CN1[C@@H](CCC(=O)NCc2ccc(F)cc2)CNC(=O)[C@H]2NCC[C@H]21,4.945,-
CN(C)C(=O)CNC(=O)c1ccc2c(-c3nccs3)noc2c1,14.29,-0.5285
Cc1ccc(CN2C[C@@H]3CCCO[C@@H]3[C@H](N(C)Cc3ccco3)C2)o1,12.42,-
CCOc1cc(/C=C/c2ncc(C(=O)O)s2)cc(Br)c1O,21.08,10.54
Cc1nnc(N2C[C@H](OCC3CCCC3)[C@H]3OCCC[C@H]32)s1,-1.504,-
O=C(NCc1nnc2n1CCC2)N(Cc1ccc(F)cc1)C1CC1,5.435,2.933
Cc1nccn1CCCn1cncc1-c1ccc2c(c1)CCCN2C,18.55,-
NC(=O)C1CN(C(=O)C2(c3ccc(F)cc3F)CCCC2)CCO1 (centres unmarked),-,9.104

5 of the entries, repeated:

| Compound | LdMetRS | Mtb heat-shock |
|---|---|---|
| `Cc1nnc(N2C[C@H](OCC3CCCC3)[C@H]3OCCC[C@H]32)s1` | -1.504 | - |
| `COc1cccc(NC(=O)CC2Cn3ncnc3NC2=O)c1` (centres unmarked) | 8.571 | -5.698 |
| `Cn1nc(CNS(=O)(=O)Cc2ccccc2F)c2c1CCCC2` | 12.71 | 9.087 |
| `Cc1cc(C)n(CC2CCCN2C(=O)Cc2c(C)noc2C)n1` (centres unmarked) | 15.69 | 6.879 |
| `Cc1nn(C)c(N(C)C)c1CNC(C)COc1ccc(F)cc1F` (centres unmarked) | 22.16 | -7.822 |

Measurements from “University of Dundee, Small-Polar-MMV Screening Library” (2021), ChEMBL document CHEMBL3988442.